In the supplement of paper PMC10849652:
The list shows a part of the results.

Protein sequences, listed by entry. Tags and fused reporters are not part of them. Lines headed by an entry give the natural chain unless they say otherwise; changes in a name come on top.
UniProt P00491: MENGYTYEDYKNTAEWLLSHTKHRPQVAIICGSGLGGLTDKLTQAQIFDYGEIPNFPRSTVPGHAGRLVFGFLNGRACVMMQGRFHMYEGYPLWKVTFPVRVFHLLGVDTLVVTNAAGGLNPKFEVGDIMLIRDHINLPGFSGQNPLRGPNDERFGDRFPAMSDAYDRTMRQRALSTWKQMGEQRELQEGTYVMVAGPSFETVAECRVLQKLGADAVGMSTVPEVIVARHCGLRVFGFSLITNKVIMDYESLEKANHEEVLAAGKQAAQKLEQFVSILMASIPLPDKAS
UniProt Q9H1D9: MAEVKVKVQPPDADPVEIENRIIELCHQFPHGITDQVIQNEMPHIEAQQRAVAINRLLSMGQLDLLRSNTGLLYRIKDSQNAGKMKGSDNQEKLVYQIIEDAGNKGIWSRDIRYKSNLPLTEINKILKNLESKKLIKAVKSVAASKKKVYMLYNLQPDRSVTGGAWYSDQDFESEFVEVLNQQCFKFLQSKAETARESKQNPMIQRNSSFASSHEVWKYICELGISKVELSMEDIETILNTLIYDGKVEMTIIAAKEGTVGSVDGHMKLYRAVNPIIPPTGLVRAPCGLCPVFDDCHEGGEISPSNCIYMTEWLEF

Tests used:
Assay in all cases: log2 fold change, soluble protein after heating vs DMSO (PISA); higher = thermal stabilisation; K562 lysate, 10 uM; active = over 0.2 and 3.5 SD of the protein, either way, in both replicates (recomputed)
nilotinib = compound: Cc1cn(-c2cc(NC(=O)c3ccc(C)c(Nc4nccc(-c5cccnc5)n4)c3)cc(C(F)(F)F)c2)cn1 [nilotinib]
Method in brief: (§1)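 Following dounce homogenisation of K562 pellets in PBS pH 7.4 with 1 mM MgCl2, crude extract at 1 mg/mL protein was incubated for 30 min with 10 μM compound. Aliquots were then heated for 3 min over 48°C-58°C and pooled, NP-40 was added to 0.5% at 4°C, and soluble protein was recovered as the supernatant at 21,000xg for 90 min. Channel-sum-equalised TMTpro 16plex LC-MS/MS quantified this protein. Each value, from duplicates, is a log-two fold change in thermal stability relative to solvent controls.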

[1] = compound: Cc1nc(Nc2n[nH]c3c2CN(C(=O)N[C@H](CN(C)C)c2ccccc2)C3(C)C)c2sccc2n1
Method in brief: as §1

dasatinib = compound: Cc1nc(Nc2ncc(C(=O)Nc3c(C)cccc3Cl)s2)cc(N2CCN(CCO)CC2)n1 [dasatinib]
Method in brief: as §1

[2] = compound: Cc1ncc(-c2ccnc(Nc3ccc(S(C)(=O)=O)cc3)n2)n1C(C)C
Method in brief: as §1

[3] = compound: Cn1cc(-c2ccc3c(c2)CCN3C(=O)Cc2cccc(C(F)(F)F)c2)c2c(N)ncnc21
Method in brief: as §1

quisinostat = compound: Cn1cc(CNCC2CCN(c3ncc(C(=O)NO)cn3)CC2)c2ccccc21 [quisinostat]
Method in brief: as §1

tipifarnib = compound: Cn1cncc1[C@@](N)(c1ccc(Cl)cc1)c1ccc2c(c1)c(-c1cccc(Cl)c1)cc(=O)n2C [tipifarnib]
Method in brief: as §1

[4] = compound: NC(=O)Nc1cc(-c2cccc(F)c2)sc1C(=O)N[C@H]1CCCNC1
Method in brief: as §1

[5] = compound: NC(=O)c1cnc(N[C@@H]2CCCC[C@@H]2N)nc1Nc1cccc(-n2nccn2)c1
Method in brief: as §1

[6] = compound: NC1(c2ccc(-c3nc4ccn5c(=O)[nH]nc5c4cc3-c3ccccc3)cc2)CCC1
Method in brief: as §1

[7] = compound: NCC(=O)Nc1ccc(-n2nc(C(F)(F)F)cc2-c2ccc3c(ccc4ccccc43)c2)cc1
Method in brief: as §1

vorinostat = compound: O=C(CCCCCCC(=O)Nc1ccccc1)NO [vorinostat]
Method in brief: as §1

silmitasertib = compound: O=C(O)c1ccc2c(c1)nc(Nc1cccc(Cl)c1)c1ccncc12 [silmitasertib]
Method in brief: as §1

[8] = compound: O=C1NC(=O)C(c2cnc3ccccn23)=C1c1cn2c3c(cc(F)cc13)CN(C(=O)N1CCCCC1)CC2
Method in brief: as §1

entospletinib = compound: c1cn2cc(-c3ccc4cn[nH]c4c3)nc(Nc3ccc(N4CCOCC4)cc3)c2n1 [entospletinib]
Method in brief: as §1

Measured: log2 fold change

POLR2A, A0A590UJN4
inactive: nilotinib -0.084 | [1] 0.016 | dasatinib -0.012 | [2] 0.027 | [3] 0.031 | quisinostat -0.037 | tipifarnib -0.006 | [4] 0.004 | [5] 0.003 | [6] -0.028 | [7] 0.012 | vorinostat -0.085 | silmitasertib -0.014 | [8] 0.05 | entospletinib 0.013

PNP (UniProt P00491)
inactive: nilotinib 0.007 | [1] -0.002 | dasatinib 0.031 | [2] -0.013 | [3] 0.002 | quisinostat 0.001 | tipifarnib 0.003 | [4] 0 | [5] -0.012 | [6] 0.023 | [7] -0.01 | vorinostat 0.13 | silmitasertib -0.021 | [8] -0.031 | entospletinib -0.009

POLR2D (UniProt O15514)
inactive: nilotinib -0.083 | [1] 0.052 | dasatinib -0.014 | [2] -0.028 | [3] 0.039 | quisinostat -0.013 | tipifarnib 0.13 | [4] -0.026 | [5] 0.02 | [6] 0.003 | [7] 0.011 | vorinostat 0.137 | silmitasertib -0.044 | [8] 0.009 | entospletinib -0.098

POLR3F (UniProt Q9H1D9)
inactive: nilotinib 0.009 | [1] -0.008 | dasatinib 0.006 | [2] -0.03 | [3] -0.001 | quisinostat 0.012 | tipifarnib -0.007 | [4] 0.016 | [5] -0.002 | [6] -0.015 | [7] -0.022 | vorinostat 0.058 | silmitasertib 0.012 | [8] -0.037 | entospletinib -0.025
